These are yes or no findings as the source states them, for the method shown. Binding seen in cells or lysates may run through a third protein. Some results given as binding are weak or reduced against the parent protein; the word gives no strength. Tags and fused reporters may be left off the sequences shown.
Target: T1, GST-Vam7 (S. cerevisiae) (UniProt P32912)
T1 sequence: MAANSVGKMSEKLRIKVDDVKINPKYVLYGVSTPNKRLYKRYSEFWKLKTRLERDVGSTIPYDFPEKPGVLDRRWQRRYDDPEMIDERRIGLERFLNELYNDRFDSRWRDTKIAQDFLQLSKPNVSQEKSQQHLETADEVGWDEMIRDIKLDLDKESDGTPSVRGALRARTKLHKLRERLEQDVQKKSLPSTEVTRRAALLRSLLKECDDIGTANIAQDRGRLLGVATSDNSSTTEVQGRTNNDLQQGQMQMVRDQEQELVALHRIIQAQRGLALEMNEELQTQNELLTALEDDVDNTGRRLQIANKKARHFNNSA
Assay: pull-down

B1: Vam3 (protein, UniProt Q12241 1-283)
chain: MSFFDIEAQSSKGNSQQEPQFSTNQKTKELSNLIETFAEQSRVLEKECTKIGSKRDSKELRYKIETELIPNCTSVRDKIESNILIHQNGKLSADFKNLKTKYQSLQQSYNQRKSLFPLKTPISPGTSKERKDIHPRTEAVRQDPESSYISIKVNEQSPLLHNEGQHQLQLQEEQEQQQQGLSQEELDFQTIIHQERSQQIGRIHTAVQEVNAIFHQLGSLVKEQGEQVTTIDENISHLHDNMQNANKQLTRADQHQRDRNKCGKVTLIIIIVVCMVVLLAVLS
- binding: binds

B2: Nyv1 (protein, UniProt Q12255 1-253)
chain: MKRFNVSYVEVIKNGETISSCFQPFQKNENYGTITSANEQITPVIFHNLIMDMVLPKVVPIKGNKVTKMSMNLIDGFDCFYSTDDHDPKTVYVCFTLVDMPKILPIRILSGLQEYESNATNELLSSHVGQILDSFHEELVEYRNQTLNSSGNGQSSNGNGQNTISDIGDATEDQIKDVIQIMNDNIDKFLERQERVSLLVDKTSQLNSSSNKFRRKAVNIKEIMWWQKVKNITLLTFTIILFVSAAFMFFYLW
- binding: binds

Source: doi:10.1101/390062
